Laboratory results published in PubChem BioAssay AID624291 (National Center for Advancing Translational Sciences (NCATS), 2012).
Hit rate of the full screen: of about 350,000 compounds, about 220 (0.063%) were called active. Inconclusive results, whose numbers are uncertain, are shown with a selection of clear calls. Calls come from the whole dose curve; as a rule, active = well fitted activation curve with a large enough effect; inconclusive = small, poorly fitted or top-dose-only effect; inactive = no such curve, though single readings can be large or run the other way. Potencies beside an inconclusive call are fits to weak or partial responses and may not hold up.

Assay: qHTS for Activators of Integrin-Mediated Alleviation for Muscular Dystrophy; note: nearly all actives have a fitted effect of over 60% in size;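 for activation: 100% = response of the positive control SU9516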
Conditions: alpha7betagal myoblasts, beta-gal FDG fluorescence, 48 h; activation: at 38.3 µM (top of the series)
How it was run: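 alpha7betagal+/- myoblasts (passage 13, 250/well) treated 48 h at 37C with compounds at 1:260 dilution of DMSO stock. Lysed, then beta-galactosidase activity read as FDG fluorescence (ex 480/em 540) after 30 min, with pre-read for autofluorescence.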
Potency is the fitted concentration of half-maximal effect.

Potency, active:
CNc1cc([N+](=O)[O-])ccc1OCc1ccccc1 4.47 µM

Potency, inconclusive:
Cn1c2c(c(=O)n(C)c1=O)C(c1ccc(C(F)(F)F)cc1)CC(=O)N2 (stereo not drawn) 3.55 µM [activator, partial curve]
CC(C)n1cc(CN2CCCC(C(=O)Nc3ccccc3Oc3cccnc3)C2)cn1 (stereo not drawn) 28.2 µM [activator, single point]
CSc1nccn1C(=O)c1ccccc1[N+](=O)[O-] 3.16 µM [activator, single point]
Oc1ccccc1Nc1nc(-c2ccccc2O)nc2ccccc12 2 µM [activator, single point]
Cc1nc(-c2ccc(S(=O)(=O)Nc3ccc(Br)cc3Cl)s2)cs1 28.2 µM [activator, single point]
CCc1ccc(/C=C2/SC(=S)N(CCCC(=O)Nc3ccccc3C(=O)O)C2=O)cc1 5.01 µM [activator, single point]
CCOC(=O)Cc1csc(NC(=O)COc2ccccc2)n1 0.891 µM [activator, full curve, poor fit]
CCO/C=C1/C(=O)N(Cc2ccccc2)C(=O)c2ccccc21 5.01 µM [activator, single point]
CCOC(=O)C1=C(C)NC(=S)N(C(C)=O)C1c1ccc(OC)c(OC)c1 (stereo not drawn) 5.01 µM [activator, single point]
O=C(Cc1ccc(Cl)cc1Cl)OCC(=O)c1ccc[nH]1 5.62 µM [activator, partial curve, poor fit]
O=C(O)Cc1csc(-c2cccc(Oc3ccccc3)c2)n1 14.1 µM [activator, single point]
CCC(=O)N1CCc2cc(S(=O)(=O)N3CCCCCC3)ccc21 8.91 µM [activator, single point]
COCCCNC(=S)Nc1ccc(N2CCCCC2)cc1 14.1 µM [activator, single point]
Cc1nc(Cl)c(C#N)c2c1CCCC2 8.91 µM [activator, partial curve, poor fit]
CC(=O)C1=C(O)C(=O)N(CCCn2ccnc2)C1c1ccc(Br)cc1 (stereo not drawn) 7.94 µM [activator, partial curve, poor fit]
Fc1ccc(-c2cc(-c3nnc4n3CCCCC4)c3ccccc3n2)cc1 10 µM [activator, partial curve]
Cc1ccc(Nc2nc3ccccc3n3cnnc23)c(Cl)c1 2.82 µM [activator, single point]
CCN1CCN(c2ccc(NC(=O)c3ccco3)cc2)CC1 1.26 µM [activator, single point]
O=C(NCc1cccnc1)c1cc(Sc2ccccc2Cl)nc2ccccc12 10 µM [activator, partial curve]
COCCNC(=O)c1ccccc1NC(=O)CCSc1ccccc1 3.98 µM [activator, single point]
Cc1ccsc1CNC12CC3CC(CC(C3)C1)C2 3.98 µM [activator, single point]
CCCCS(=O)(=O)N1CCC(C(=O)NCC2CCCO2)CC1 (stereo not drawn) 5.01 µM [activator, single point]
O=C1CCc2cc(S(=O)(=O)NCCCC(=O)N3CCN(Cc4ccc5c(c4)OCO5)CC3)ccc2N1 0.501 µM [activator, full curve, poor fit]
CCC(C)NC(=O)CN1C(=O)C(CC)Sc2ccccc21 (stereo not drawn) 0.501 µM [activator, full curve, poor fit]
COc1ccc(NC(=O)CSc2n[nH]c(-c3ccco3)n2)cc1 6.31 µM [activator, partial curve, poor fit]
CC1CC(C)CN(C(=O)CCc2nnc3ccc(N4CCCCC4)nn23)C1 (stereo not drawn) 0.631 µM [activator, single point]
COc1ccc(/C=C2\C(=N)N3N=C(CC(=O)N4CCCCC4)SC3=NC2=O)cc1 15.8 µM [activator, single point]
Cc1ccc(N2C(=O)CC(Cc3cccc(C)c3)C2=O)cc1 (stereo not drawn) 5.01 µM [activator, single point]
Cn1c(Cn2c(=O)sc3ccccc32)nnc1SCC(=O)NCc1ccccc1 28.2 µM [activator, single point]
COc1ccccc1CNC(=O)CN1C(=O)N(C)C2(CCCCC2)C1=O 2 µM [activator, partial curve, poor fit]
COc1cc(OC)cc(C(=O)N[C@H](C(=O)NCc2ccco2)C(C)C)c1 4.47 µM [activator, single point]
CC(Sc1nnc2ccccn12)C(=O)NCc1ccc2c(c1)OCO2 (stereo not drawn) 10 µM [activator, single point]
NS(=O)(=O)c1ccc(CCNC(=O)C2CCCN2S(=O)(=O)c2cccc3nsnc23)cc1 (stereo not drawn) 2.51 µM [activator, single point]
COc1ccc(C(=O)NC(C)c2ccccc2)cc1Br (stereo not drawn) 25.1 µM [activator, single point]
Cc1cccc(C(=O)Nc2c3c(nn2C(C)(C)C)CS(=O)(=O)C3)c1 3.16 µM [activator, full curve, poor fit]
O=C(Nc1ccc(Cl)cc1)c1ccc(OCC2CCCO2)cc1 (stereo not drawn) 11.2 µM [activator, single point]
O=C(c1cccs1)N1CCN(Cc2cn[nH]c2-c2ccc(F)cc2F)CC1 3.55 µM [activator, full curve, poor fit]
Cc1ccc(C(C(=O)NC(C)(C)C)N(Cc2cccs2)C(=O)c2ccc3c(c2)OCCO3)cc1 (stereo not drawn) 3.55 µM [activator, full curve, poor fit]
COC(=O)c1cccc(NC(=O)c2ccc3c(c2)C(=O)N(Cc2cccnc2)C3=O)c1 3.98 µM [activator, single point]
O=C(Nc1ccc(N2CCOCC2)cc1N1CCOCC1)c1ccc(Br)cc1 15.8 µM [activator, single point]
Cc1nc2oc3ccc(F)cc3c(=O)c2cc1C(=O)O 12.6 µM [activator, single point]
Cc1ccc(CCN2CC(C(=O)NCCCN3CCC(C)CC3)CC2=O)cc1 (stereo not drawn) 0.501 µM [activator, full curve, poor fit]
CC(C)c1nnc(NC(=O)CCC(=O)NCc2ccc(F)cc2)s1 3.55 µM [activator, partial curve, poor fit]
S=c1[nH]nc(COc2ccc(Cl)cc2)n1-c1ccc(Cl)cc1 12.6 µM [activator, partial curve, poor fit]
O=C(NN=Cc1ccccc1C(=O)O)c1ccc(NS(=O)(=O)c2cccs2)cc1 14.1 µM [activator, single point]
CCC(C)(c1nnnn1-c1c(C)cccc1C)N(N=O)c1ccccc1Cl (stereo not drawn) 3.16 µM [activator, partial curve, poor fit]
O=C(NCc1ccc(F)cc1F)Nc1cnccc1C(F)(F)F 28.2 µM [activator, single point]

Random excerpt: two entries already listed, in no set order.
Potency, inconclusive:
CCOC(=O)Cc1csc(NC(=O)COc2ccccc2)n1 0.891 µM [activator, full curve, poor fit]
O=C(c1cccs1)N1CCN(Cc2cn[nH]c2-c2ccc(F)cc2F)CC1 3.55 µM [activator, full curve, poor fit]

Next part:

activation, inactive:
Cc1ccc(-n2c(=O)[nH]c3cc(C(=O)NC4CCN(Cc5ccccc5)CC4)ccc3c2=O)cc1 -7.5%
COc1ccc(-c2cn[nH]c2-c2ccc(OC)cc2O)cc1 7.88%
O=C(NCCCN1CCCC1=O)c1nnc(Cc2c(F)cccc2Cl)o1 13.9%
COc1ccc(/C=N/Nc2nc(N3CCCCC3)nc(N3CCCCC3)n2)cc1[N+](=O)[O-] 12.4%
O=C1/C(=C/c2ccco2)CCc2ccccc21 -9.83%
CCc1nnc(NC(=O)C2CCN(c3nccc(C)n3)CC2)s1 6.97%
NC(=O)NNC(=S)Nc1cccc2ccccc12 21.8%
COc1ccc(S(=O)(=O)N(C)[C@H]2C[C@H]3c4cc(N5CCN(C)CC5)ccc4CCN3C(=O)[C@H]2[C@H](C)O)cc1 -16.8%
COC(=O)C(Cc1ccc(OC(=O)c2ccc(C(F)(F)F)cc2)cc1)N1Cc2ccccc2C1=O (stereo not drawn) -43.6%
COc1ccc(C(=O)OC(C)C(=O)NC(C)CCc2ccccc2)cc1[N+](=O)[O-] (stereo not drawn) 2.32%
CCOC(=O)C1(CCOc2ccccc2)CCN(Cc2ccc(O)cc2)CC1 -16.6%
CC(C)COc1ccc(CNC(=S)N/N=C/c2ccc([N+](=O)[O-])cc2)cc1 -14.2%
O=C1C=CC(=O)N1c1cccc(-c2ccccc2)c1 -37.7%
CC(C)C(NC(=O)c1ccccc1)C(=O)N/N=C\c1ccco1 (stereo not drawn) 14.7%
CN(C)CCCNS(=O)(=O)c1ccc(N2CCN(Cc3ccc4c(c3)OCO4)CC2)c([N+](=O)[O-])c1 -62.1%
Nc1c(-c2ccccc2)cnc2cc(-c3ccccc3)nn12 6.48%
CCN(CC(=O)NC(=O)NCc1ccco1)Cc1nc2ccccc2c(=O)[nH]1 0%
CC1CN(c2ccc(NC(=S)Nc3ccc(N4CC(C)OC(C)C4)cc3)cc2)CC(C)O1 (stereo not drawn) -35.4%
CN1C[C@@H]2[C@@H]3C(=O)N(Cc4ccccc4)C(=O)[C@@H]3[C@](C)(C1=O)N2C(=O)c1ccc(F)cc1 -11.3%
Cn1c(=O)[nH]c(=O)c2c1nc(CN1CCOCC1)n2CCCO 7.13%

Copied from the listing (two entries):
activation, inactive:
CC1CN(c2ccc(NC(=S)Nc3ccc(N4CC(C)OC(C)C4)cc3)cc2)CC(C)O1 (stereo not drawn) -35.4%
CN1C[C@@H]2[C@@H]3C(=O)N(Cc4ccccc4)C(=O)[C@@H]3[C@](C)(C1=O)N2C(=O)c1ccc(F)cc1 -11.3%
